Laboratory results: patent publication US20150079090A1 (JOSAI UNIVERSITY, published 2015)
No constants are given. Whether binding was seen depends on the method and setting. Binding can be weak; no strength is given. Ends that are not written are not given here.

Key:
[1] = molecular target: histone H1; experiment: ELISA in the same manner as Test Example 2
[2] = molecular target: histone H3; experiment: ELISA in the same manner as Test Example 2
[3] = molecular target: histone H1; experiment: ELISA, histone coated on plate, 5 ug/mL SSVmAb, absorbance at 405 nm
[4] = molecular target: histone H2A; experiment: as above
[5] = molecular target: histone H2B; experiment: as above
[6] = molecular target: histone H3; experiment: as above

Measured: binding

B1: monoclonal antibody (SSVmAb) of Example 1, produced by hybridoma Mouse-Mouse hybridoma SSV-C 93-3 (NITE BP-972) (antibody, IgG1, V domains shown)
VH: EIQLQQSGAELVKPGASVKISCKASGYSFTGYNMNWVKQSHGKSLEWIGNINPYYGSTSYNQKFKGKATLTVDKSSSTAYMQLNSLTSEDSAVYYCARSPYYSNYWRYFDYWGQGTTLTVSS
VL: QIVLSQSPAILSASPGEKVTMTCRASSSVSYMHWYQQKPGSSPKPWIYATSNLASGVPARFSGSGSGTSYSLTISRVEAEDAATYYCQQWSSNPWTFGGGTKLEIK
notes: Mouse hybridoma antibody
binds: all assays above
